Reference: PMC7156367, “Cell surface processing of the P1 adhesin of Mycoplasma pneumoniae identifies novel domains that bind host molecules” (Scientific Reports, 2020)
No constants are given. Whether binding was seen depends on the method and setting.

Amino acid sequences for entries named in this document (tags omitted). Residues count along the entry.
UniProt P02788, residues 20-710: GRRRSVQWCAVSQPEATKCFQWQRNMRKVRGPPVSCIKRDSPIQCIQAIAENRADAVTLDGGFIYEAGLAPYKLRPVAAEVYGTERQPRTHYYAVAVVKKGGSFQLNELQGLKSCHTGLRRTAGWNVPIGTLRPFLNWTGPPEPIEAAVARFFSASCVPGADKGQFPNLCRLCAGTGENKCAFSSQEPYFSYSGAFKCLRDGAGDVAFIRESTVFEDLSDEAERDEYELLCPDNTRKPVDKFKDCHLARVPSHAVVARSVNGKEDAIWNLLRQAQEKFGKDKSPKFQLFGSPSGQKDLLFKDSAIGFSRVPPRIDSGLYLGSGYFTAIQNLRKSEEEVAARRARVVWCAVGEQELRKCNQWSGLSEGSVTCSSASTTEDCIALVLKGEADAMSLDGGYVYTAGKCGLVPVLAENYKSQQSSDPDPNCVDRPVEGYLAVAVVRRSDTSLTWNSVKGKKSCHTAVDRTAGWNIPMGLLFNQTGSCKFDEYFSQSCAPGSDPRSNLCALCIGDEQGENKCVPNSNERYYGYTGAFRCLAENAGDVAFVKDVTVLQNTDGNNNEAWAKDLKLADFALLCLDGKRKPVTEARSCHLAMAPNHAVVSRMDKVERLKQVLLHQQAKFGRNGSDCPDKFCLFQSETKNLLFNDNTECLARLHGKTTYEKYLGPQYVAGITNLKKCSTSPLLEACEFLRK

T1: Fetuin, fluorescent labelled (microscale thermophoresis) (bovine) (UniProt P12763)
T1 sequence (chain, fluorescent label): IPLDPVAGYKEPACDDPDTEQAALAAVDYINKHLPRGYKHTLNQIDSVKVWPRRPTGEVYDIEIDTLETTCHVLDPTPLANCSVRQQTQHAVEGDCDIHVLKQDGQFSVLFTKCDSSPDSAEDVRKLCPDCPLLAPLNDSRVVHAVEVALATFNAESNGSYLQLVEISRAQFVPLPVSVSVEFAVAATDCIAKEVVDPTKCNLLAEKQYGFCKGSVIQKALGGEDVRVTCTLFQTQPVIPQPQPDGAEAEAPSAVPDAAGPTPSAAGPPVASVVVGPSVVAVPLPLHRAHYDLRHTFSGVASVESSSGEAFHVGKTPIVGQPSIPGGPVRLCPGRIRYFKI


Key:
[1] = molecular target: P1-15, synthetic C-terminal peptide of P1 adhesin with N-terminal biotin (Mycoplasma pneumoniae); assay: ELISA; 15 µg/ml of C-terminal P1 fragment bound to wells, incubated with host protein at several concentrations; detected with antiserum against the host protein, absorbance at 450 nm; both purified
[2] = molecular target: T1, Fetuin, fluorescent labelled (microscale thermophoresis) (bovine); assay: MST; fluorescent labelled host protein, peptide titrated; thermophoresis 30 s, 40%, 60% and 80% MST power; both purified

Row | binding [2] | Molecule | binding [1]
1 |  | Human lactoferrin (from UniProt P02788 20-710) | no binding
2 | no binding | PKPPRAAPPKAPTPVPPGPASPVKKPKQAPG [Scrambled version of P1-30] | 
